From patent US8552052B2, “Use of diindolylmethane-related indoles for the treatment and prevention of respiratory syncytial virus associated conditions” (BioResponse, L.L.C., priority 2004, dated 2013)
Entries after “also recorded” stand apart in the source; their conditions may differ. For at least one compound, name, drawing or mass did not settle the structure.

How the values were obtained:
[1] = test system: RSV infected A549 pulmonary epithelial cells; assay: Phosphohistone (H2A.X Phosphorylation) assay of apoptosis in RSV infected A549 cells; type: cell-based, human; conditions: 18 hour treatment, DIM 70, 210, 700 nM, LY294002 2 and 5 μM, FIG. 1
Protocol: (§1) Cell Culture—A549 cells, a tumor cell line with properties of normal airway epithelial cells, were obtained from American Type Culture Collection (ATCC, Manassas, Va.) and incubated at 37° C. in 5% CO2. The cells were cultured in Eagle's minimum essential medium (MEM, Invitrogen) supplemented with 10% fetal bovine serum (HyClone, Logan, Utah) and […] gentamicin. The A549 cells were subcultured by harvesting in 0.12% trypsin no more than 20 times from stock originally designated at pass 70. To minimize effects of exogenous growth factors or cytokines in this system, the supplemented serum concentration was reduced to 0.5% 24 h prior to and during all experiments with RSV infection.
RSV Virus—RSV, strain A2, was obtained from Advanced Biotechnologies Inc. (Columbia, Md.) and was used directly as supplied for all experiments. The viral preparation was tested to have a TCID50 titer of ˜1×10^9 in Hep-2 cells at 7 days. […]
Cell Viability and Death Assays—Induction of Apoptosis by DIM in RSV infected A549 cell was measured according to a Phosphohistone Assay. […] The detection was done by LumiGLO™ chemiluminescent substrate and the plate was read in a microplate luminometer after 10-20 min. Luminescence indicated the extent of apoptosis in the sample examined.

RSV, strain A2 = assay: Production of infectious RSV from infected A549 cells (plaque titer on HEp-2 monolayers); type: cell-based, Respiratory Syncytial Virus; conditions: 72 hour treatment of infected A549 cells; DIM 70, 210, 700 nM; LY294002 2 and 5 μM; FIG. 2
Protocol: as §1, with “infection. […] RSV Virus—RSV, strain A2, was obtained from Advanced Biotechnologies Inc. (Columbia, Md.) and was used directly as supplied for all experiments. The viral preparation was tested to have a TCID50 titer of ˜1×10^9 in Hep-2 cells at 7 days. […] Levels of Production of Infectious RSV—Production of infectious RSV particles in A549 cell culture in the presence of various concentrations of DIM was measured using a method where the cell free media were titered for RSV infectious activity on a monolayer culture of Hep-2 cells. […] The plaques that appeared around 48 h of incubation were visualized by neutral red staining and counted.” for “infection.”

O=c1cc(N2CCOCC2)oc2c(-c3ccccc3)cccc12 [LY294002, reference compound]
cells undergoing apoptosis [1]: Promotion of apoptosis
RSV yield: viral replication and production of extracellular, progeny RSV viral particles (RSV, strain A2): inhibition of RSV replication; also recorded: Reduction of RSV replication
